This is one part of the list.
Legend:
Experiment in all cases: log2 fold change, soluble protein after heating vs DMSO (PISA); higher = thermal stabilisation; K562 lysate, 10 uM; active = over 0.2 and 3.5 SD of the protein, either way, in both replicates (recomputed)
[1] = compound: CS(=O)(=O)CCNCc1ccc(-c2ccc3ncnc(Nc4ccc(OCc5cccc(F)c5)c(Cl)c4)c3c2)o1 [lapatinib]
Summary of the method: (§1)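 K562 pellets were dounce-homogenised in PBS pH 7.4 with 1 mM MgCl2, and the crude extract at 1 mg/mL protein was treated with 10 μM compound for 30 min. Aliquots were heated for 3 min across 48°C-58°C, pooled, and brought to 0.5% NP-40 at 4°C; soluble protein was the supernatant after 21,000xg for 90 min. Soluble protein was quantified by TMTpro 16plex LC-MS/MS with channel sums equalised, and reported as log2 fold change in thermal stability against DMSO controls, with values from duplicates.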

The chains behind the UniProt entries cited, without tags or fusion partners. Where a name states a change or a piece, a line headed by the entry shows the natural chain unless it says otherwise.
UniProt P35236: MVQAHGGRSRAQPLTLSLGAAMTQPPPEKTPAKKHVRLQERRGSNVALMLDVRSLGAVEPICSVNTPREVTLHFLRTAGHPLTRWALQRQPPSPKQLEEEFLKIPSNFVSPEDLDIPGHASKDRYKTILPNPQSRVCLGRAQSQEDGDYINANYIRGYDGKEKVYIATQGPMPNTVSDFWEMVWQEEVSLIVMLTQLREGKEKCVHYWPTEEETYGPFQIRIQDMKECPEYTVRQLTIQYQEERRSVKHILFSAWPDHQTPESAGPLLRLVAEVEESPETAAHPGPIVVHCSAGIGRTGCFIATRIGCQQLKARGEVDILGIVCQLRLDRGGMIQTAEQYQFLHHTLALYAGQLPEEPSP
UniProt P15151: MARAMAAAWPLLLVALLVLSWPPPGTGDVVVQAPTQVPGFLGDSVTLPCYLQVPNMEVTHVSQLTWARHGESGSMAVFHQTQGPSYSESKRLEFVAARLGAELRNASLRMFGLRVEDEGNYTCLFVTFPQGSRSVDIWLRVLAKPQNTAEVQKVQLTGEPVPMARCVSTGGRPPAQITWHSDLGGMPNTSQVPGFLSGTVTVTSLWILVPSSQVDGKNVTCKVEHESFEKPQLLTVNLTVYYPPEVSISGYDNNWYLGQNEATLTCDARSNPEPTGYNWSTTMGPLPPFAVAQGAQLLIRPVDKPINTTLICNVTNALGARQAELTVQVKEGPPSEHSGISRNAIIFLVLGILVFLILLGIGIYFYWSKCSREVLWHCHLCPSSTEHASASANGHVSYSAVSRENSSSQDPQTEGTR
UniProt P35998: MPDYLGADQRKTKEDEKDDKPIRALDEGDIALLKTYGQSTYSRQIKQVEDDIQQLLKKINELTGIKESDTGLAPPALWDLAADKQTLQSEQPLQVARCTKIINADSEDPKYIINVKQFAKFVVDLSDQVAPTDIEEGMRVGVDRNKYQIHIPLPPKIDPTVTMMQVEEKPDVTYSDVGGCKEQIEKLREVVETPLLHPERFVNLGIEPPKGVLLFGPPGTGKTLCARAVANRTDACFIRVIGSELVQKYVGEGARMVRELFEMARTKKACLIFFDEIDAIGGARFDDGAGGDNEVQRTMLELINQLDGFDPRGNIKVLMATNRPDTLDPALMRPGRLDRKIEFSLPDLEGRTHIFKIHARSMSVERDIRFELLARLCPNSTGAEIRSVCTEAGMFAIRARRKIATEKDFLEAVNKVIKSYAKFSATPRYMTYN
UniProt Q9Y6M0: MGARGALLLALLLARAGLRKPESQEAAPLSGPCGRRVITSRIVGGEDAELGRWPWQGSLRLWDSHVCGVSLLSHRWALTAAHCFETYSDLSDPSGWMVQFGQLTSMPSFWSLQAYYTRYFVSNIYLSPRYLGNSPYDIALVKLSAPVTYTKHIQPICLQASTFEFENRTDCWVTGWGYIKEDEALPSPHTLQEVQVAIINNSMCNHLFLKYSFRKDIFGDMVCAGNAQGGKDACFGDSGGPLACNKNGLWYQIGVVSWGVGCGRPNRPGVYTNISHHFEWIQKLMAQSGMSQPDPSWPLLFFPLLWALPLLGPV
UniProt P48556: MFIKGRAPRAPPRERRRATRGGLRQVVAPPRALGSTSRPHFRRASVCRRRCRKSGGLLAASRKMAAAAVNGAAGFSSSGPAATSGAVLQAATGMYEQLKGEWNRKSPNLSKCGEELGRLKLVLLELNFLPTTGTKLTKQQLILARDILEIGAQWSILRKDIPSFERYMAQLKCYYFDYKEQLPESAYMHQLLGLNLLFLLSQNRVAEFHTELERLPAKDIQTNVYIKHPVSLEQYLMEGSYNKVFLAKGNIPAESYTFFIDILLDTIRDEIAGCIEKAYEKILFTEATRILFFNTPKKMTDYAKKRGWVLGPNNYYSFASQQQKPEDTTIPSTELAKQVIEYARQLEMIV
UniProt Q96BW5: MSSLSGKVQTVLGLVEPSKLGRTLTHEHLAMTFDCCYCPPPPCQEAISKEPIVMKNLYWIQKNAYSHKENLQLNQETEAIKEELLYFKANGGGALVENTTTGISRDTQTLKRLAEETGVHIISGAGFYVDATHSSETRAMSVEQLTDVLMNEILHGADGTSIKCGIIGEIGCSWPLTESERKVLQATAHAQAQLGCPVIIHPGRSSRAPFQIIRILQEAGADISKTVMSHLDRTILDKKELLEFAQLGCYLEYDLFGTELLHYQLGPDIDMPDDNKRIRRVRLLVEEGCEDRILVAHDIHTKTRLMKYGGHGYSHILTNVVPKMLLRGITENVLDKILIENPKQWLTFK
UniProt Q14671: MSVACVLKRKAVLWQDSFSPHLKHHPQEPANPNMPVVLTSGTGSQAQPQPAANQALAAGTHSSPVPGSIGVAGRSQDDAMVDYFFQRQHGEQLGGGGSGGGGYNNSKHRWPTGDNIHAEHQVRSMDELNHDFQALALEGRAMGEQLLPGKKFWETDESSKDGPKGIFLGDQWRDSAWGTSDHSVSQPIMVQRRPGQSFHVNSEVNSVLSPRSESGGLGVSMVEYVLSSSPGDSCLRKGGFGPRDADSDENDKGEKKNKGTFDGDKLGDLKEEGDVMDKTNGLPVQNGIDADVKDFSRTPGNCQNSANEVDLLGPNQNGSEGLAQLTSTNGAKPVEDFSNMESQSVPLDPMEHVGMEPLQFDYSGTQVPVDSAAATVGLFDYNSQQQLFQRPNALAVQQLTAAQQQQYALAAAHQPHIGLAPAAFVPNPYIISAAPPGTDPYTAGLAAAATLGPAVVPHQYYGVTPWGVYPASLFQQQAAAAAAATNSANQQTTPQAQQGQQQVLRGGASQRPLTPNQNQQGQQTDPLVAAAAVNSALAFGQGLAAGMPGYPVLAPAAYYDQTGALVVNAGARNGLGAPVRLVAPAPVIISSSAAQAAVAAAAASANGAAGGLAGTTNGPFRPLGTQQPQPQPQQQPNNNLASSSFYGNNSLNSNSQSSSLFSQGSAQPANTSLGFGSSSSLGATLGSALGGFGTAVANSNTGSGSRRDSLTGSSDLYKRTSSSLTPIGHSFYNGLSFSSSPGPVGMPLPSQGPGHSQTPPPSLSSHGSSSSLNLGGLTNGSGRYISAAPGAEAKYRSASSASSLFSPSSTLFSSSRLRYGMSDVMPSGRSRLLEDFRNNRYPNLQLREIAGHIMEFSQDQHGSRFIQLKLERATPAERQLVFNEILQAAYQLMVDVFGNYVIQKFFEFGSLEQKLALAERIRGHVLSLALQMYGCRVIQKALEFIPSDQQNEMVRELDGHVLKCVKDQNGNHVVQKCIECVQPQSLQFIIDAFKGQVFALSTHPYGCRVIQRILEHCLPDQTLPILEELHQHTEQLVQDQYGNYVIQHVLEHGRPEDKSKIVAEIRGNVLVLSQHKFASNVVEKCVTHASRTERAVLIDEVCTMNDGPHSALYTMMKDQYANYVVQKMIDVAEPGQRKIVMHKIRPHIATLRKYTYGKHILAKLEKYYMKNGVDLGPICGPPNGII
UniProt Q96QR8: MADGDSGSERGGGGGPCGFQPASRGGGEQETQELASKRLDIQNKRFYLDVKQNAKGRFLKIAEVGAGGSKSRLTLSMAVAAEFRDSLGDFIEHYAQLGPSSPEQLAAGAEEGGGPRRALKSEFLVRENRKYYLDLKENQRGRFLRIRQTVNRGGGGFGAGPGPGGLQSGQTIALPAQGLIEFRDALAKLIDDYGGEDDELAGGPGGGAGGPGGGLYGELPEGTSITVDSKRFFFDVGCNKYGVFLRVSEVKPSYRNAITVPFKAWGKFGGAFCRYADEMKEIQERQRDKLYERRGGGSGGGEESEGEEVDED
UniProt Q9H939: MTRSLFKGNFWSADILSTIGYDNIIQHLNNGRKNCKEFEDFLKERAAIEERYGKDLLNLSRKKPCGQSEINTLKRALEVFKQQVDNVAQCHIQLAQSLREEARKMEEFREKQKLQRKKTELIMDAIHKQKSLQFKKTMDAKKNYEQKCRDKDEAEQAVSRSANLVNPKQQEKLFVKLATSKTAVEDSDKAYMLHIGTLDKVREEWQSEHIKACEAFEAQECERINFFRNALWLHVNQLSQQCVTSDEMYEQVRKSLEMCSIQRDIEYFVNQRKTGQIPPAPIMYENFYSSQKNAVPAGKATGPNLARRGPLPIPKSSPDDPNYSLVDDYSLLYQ
UniProt P28070, whole entry, looked up: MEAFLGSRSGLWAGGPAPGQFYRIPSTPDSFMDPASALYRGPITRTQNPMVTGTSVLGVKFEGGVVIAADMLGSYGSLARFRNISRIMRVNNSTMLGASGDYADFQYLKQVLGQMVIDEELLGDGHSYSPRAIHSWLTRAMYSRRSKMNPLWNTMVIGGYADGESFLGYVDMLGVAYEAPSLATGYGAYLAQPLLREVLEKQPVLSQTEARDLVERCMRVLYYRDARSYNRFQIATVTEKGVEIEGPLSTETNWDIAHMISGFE
UniProt Q15257: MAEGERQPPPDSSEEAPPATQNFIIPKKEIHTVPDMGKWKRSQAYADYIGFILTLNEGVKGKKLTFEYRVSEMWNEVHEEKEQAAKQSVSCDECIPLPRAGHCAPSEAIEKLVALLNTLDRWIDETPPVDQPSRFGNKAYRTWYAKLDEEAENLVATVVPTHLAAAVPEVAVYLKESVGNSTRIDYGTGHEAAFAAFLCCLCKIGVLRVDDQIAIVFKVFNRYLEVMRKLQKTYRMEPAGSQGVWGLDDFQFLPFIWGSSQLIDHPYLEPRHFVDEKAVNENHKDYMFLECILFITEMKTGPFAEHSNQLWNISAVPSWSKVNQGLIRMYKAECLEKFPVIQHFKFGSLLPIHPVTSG
UniProt O75832: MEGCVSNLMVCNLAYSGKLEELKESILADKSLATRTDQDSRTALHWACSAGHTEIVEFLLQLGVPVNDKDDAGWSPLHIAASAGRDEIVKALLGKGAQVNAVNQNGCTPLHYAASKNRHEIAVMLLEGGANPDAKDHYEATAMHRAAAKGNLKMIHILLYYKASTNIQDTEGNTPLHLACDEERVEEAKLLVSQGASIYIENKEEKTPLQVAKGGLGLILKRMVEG
UniProt Q13308: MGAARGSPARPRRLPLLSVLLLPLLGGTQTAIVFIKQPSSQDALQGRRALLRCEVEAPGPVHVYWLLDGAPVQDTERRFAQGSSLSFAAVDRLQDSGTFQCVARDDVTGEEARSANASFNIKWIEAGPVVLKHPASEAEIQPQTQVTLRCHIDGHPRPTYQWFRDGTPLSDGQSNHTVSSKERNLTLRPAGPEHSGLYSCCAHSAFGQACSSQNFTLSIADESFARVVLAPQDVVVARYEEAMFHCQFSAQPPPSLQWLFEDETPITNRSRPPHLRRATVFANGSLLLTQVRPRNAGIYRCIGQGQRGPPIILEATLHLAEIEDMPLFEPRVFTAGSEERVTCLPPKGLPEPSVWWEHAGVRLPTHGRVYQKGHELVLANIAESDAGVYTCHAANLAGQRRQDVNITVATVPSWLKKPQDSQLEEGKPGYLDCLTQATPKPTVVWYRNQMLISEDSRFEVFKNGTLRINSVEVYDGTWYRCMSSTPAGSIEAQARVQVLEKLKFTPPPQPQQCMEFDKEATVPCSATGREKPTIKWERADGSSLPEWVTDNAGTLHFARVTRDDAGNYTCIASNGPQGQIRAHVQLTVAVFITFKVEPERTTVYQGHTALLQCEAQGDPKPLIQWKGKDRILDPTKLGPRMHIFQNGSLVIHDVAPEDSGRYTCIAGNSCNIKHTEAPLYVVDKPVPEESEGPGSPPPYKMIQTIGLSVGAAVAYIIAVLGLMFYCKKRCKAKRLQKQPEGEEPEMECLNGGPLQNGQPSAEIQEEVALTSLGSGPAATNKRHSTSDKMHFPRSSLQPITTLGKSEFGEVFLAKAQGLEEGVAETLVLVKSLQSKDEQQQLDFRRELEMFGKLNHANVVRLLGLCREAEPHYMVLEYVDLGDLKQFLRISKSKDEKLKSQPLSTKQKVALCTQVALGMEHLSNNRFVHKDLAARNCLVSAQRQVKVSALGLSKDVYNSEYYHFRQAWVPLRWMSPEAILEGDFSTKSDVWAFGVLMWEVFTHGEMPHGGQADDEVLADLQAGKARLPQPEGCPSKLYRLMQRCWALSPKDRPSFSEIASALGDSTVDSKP
UniProt O60256: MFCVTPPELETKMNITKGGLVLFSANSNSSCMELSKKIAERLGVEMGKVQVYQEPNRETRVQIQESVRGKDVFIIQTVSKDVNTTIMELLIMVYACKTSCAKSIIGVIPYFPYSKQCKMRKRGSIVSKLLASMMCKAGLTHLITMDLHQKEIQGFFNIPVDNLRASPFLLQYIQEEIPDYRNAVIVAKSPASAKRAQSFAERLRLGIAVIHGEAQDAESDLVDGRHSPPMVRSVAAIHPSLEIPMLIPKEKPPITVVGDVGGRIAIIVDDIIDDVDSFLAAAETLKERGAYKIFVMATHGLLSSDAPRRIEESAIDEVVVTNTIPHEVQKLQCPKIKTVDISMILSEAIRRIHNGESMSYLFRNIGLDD
UniProt P53801: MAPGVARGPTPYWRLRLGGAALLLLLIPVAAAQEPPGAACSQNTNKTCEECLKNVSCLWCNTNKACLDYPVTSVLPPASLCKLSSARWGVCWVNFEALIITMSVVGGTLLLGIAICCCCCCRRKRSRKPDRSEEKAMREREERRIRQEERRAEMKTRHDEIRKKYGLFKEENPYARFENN

[2] = compound: CS(=O)(=O)N1CCN(Cc2cc3nc(-c4cccc5[nH]ncc45)nc(N4CCOCC4)c3s2)CC1 [pictilisib]
Summary of the method: as §1

[3] = compound: C[C@@H](Oc1cc(-c2cnn(C3CCNCC3)c2)cnc1N)c1c(Cl)ccc(F)c1Cl [crizotinib]
Summary of the method: as §1

[4] = compound: C[C@H](C1=CC=C(C=C1)C(=O)NC2=C3C=CNC3=NC=C2)N
Summary of the method: as §1

[5] = compound: C[C@H](Nc1ncnc2nc[nH]c12)c1cc2cccc(Cl)c2c(=O)n1-c1ccccc1 [duvelisib]
Summary of the method: as §1

[6] = compound: Cc1cc(Nc2cc(CN3CCOCC3)c3nc(C)c(Cc4ccc(Cl)cc4F)n3n2)n[nH]1 [gandotinib]
Summary of the method: as §1

[7] = compound: Cc1cc(Nc2cc(N3CCN(C)CC3)nc(Sc3ccc(NC(=O)C4CC4)cc3)n2)n[nH]1 [tozasertib]
Summary of the method: as §1

[8] = compound: Cc1ccc(-n2nc(C(C)(C)C)cc2NC(=O)Nc2ccc(OCCN3CCOCC3)c3ccccc23)cc1 [doramapimod]
Summary of the method: as §1

[9] = compound: Cc1ccc(NC(=O)c2ccc(CN3CC[C@H](N(C)C)C3)c(C(F)(F)F)c2)cc1Nc1nccc(-c2cncnc2)n1 [bafetinib]
Summary of the method: as §1

[10] = compound: Cc1cccc(CC(=O)N2CCc3c2ccc(-c2cn(C)c4ncnc(N)c24)c3F)n1
Summary of the method: as §1

| Target | log2 fold change [1] | log2 fold change [2] | log2 fold change [3] | log2 fold change [4] | log2 fold change [5] | log2 fold change [6] | log2 fold change [7] | log2 fold change [8] | log2 fold change [9] | log2 fold change [10] |
| --- | --- | --- | --- | --- | --- | --- | --- | --- | --- | --- |
| PTPN7 isoform 3 (UniProt P35236) | inactive: -0.025 | inactive: -0.04 | inactive: 0.043 | inactive: -0.028 | inactive: -0.006 | inactive: 0.056 | inactive: 0 | inactive: 0.007 | inactive: 0.036 | inactive: 0.115 |
| PVR (UniProt P15151) | inactive: 0.036 | inactive: -0.014 | inactive: 0.054 | inactive: -0.01 | inactive: 0.113 | inactive: 0.057 | inactive: 0.031 | inactive: 0.005 | inactive: -0.038 | inactive: 0.034 |
| PSMC5 (UniProt J3KRP2) | inactive: -0.021 | – | – | – | – | – | – | – | – | – |
| PSMC2 (UniProt P35998) | inactive: -0.015 | inactive: -0.015 | inactive: -0.016 | inactive: 0.015 | inactive: 0 | inactive: -0.084 | inactive: 0.003 | inactive: 0.017 | inactive: 0.031 | inactive: -0.033 |
| PRSS21 (UniProt Q9Y6M0) | inactive: -0.072 | inactive: -0.052 | inactive: -0.004 | inactive: 0.087 | inactive: -0.003 | inactive: 0.029 | inactive: -0.037 | inactive: 0.045 | inactive: 0.045 | inactive: 0.062 |
| PTPN11 isoform 1 (UniProt Q06124) | inactive: -0.004 | inactive: 0.001 | inactive: 0.03 | inactive: 0.012 | inactive: 0.018 | inactive: -0.026 | inactive: -0.021 | inactive: -0.003 | inactive: 0.063 | inactive: -0.007 |
| PTBP3 isoform 4 (UniProt O95758) | inactive: 0.003 | inactive: 0.009 | inactive: -0.024 | inactive: -0.019 | inactive: -0.02 | inactive: 0.022 | inactive: 0.006 | inactive: 0.042 | inactive: -0.003 | inactive: 0.012 |
| PRRC2A (UniProt P48634) | inactive: -0.02 | inactive: -0.017 | inactive: 0.06 | inactive: 0.011 | inactive: -0.001 | inactive: 0.007 | inactive: -0.013 | inactive: -0.073 | inactive: 0.031 | inactive: -0.058 |
| PUS7L (UniProt Q9H0K6) | inactive: -0.019 | inactive: 0.018 | inactive: 0.023 | inactive: -0.057 | inactive: -0.006 | inactive: 0.028 | inactive: -0.017 | inactive: -0.002 | inactive: -0.047 | inactive: 0.061 |
| PSMD8 (UniProt P48556) | inactive: -0.028 | inactive: -0.004 | inactive: -0.022 | inactive: -0.032 | inactive: 0.006 | inactive: -0.078 | inactive: 0.011 | inactive: 0.052 | inactive: -0.07 | inactive: 0.028 |
| PTER (UniProt Q96BW5) | inactive: -0.024 | inactive: -0.027 | inactive: 0.015 | inactive: -0.095 | inactive: -0.002 | inactive: 0.041 | inactive: 0.014 | inactive: 0.026 | inactive: 0.008 | inactive: 0.026 |
| PUM1 isoform 3 (UniProt Q14671) | inactive: 0.004 | inactive: -0.036 | inactive: 0.067 | inactive: 0.021 | inactive: -0.003 | inactive: -0.151 | inactive: 0.01 | active: -0.315 | inactive: -0.067 | inactive: -0.026 |
| PSMC5 (UniProt P62195) | inactive: -0.009 | inactive: -0.01 | inactive: -0.021 | inactive: 0.076 | inactive: 0.017 | inactive: -0.125 | inactive: 0.026 | inactive: 0.008 | inactive: 0.003 | inactive: -0.086 |
| PURB (UniProt Q96QR8) | inactive: 0.024 | inactive: 0.057 | inactive: 0.102 | inactive: -0.02 | inactive: 0.018 | inactive: -0.044 | inactive: 0.12 | inactive: -0.063 | inactive: 0.083 | inactive: 0.044 |
| PSTPIP2 (UniProt Q9H939) | inactive: 0.009 | inactive: 0.019 | inactive: -0.047 | inactive: 0.062 | inactive: -0.023 | inactive: -0.095 | inactive: 0.012 | inactive: 0.002 | inactive: -0.014 | inactive: -0.027 |
| PSMA3 (UniProt P25788) | inactive: -0.01 | inactive: -0.021 | inactive: 0.063 | inactive: 0.013 | inactive: 0.005 | inactive: 0.024 | inactive: 0.002 | inactive: -0.001 | inactive: 0.038 | inactive: -0.011 |

| Target | log2 fold change [1] | log2 fold change [2] | log2 fold change [3] | log2 fold change [4] | log2 fold change [5] | log2 fold change [6] | log2 fold change [7] | log2 fold change [8] | log2 fold change [9] | log2 fold change [10] |
| --- | --- | --- | --- | --- | --- | --- | --- | --- | --- | --- |
| PSMB4 (UniProt P28070) | inactive: -0.049 | inactive: -0.002 | inactive: -0.029 | inactive: -0.02 | inactive: 0.044 | inactive: 0.026 | inactive: -0.033 | inactive: 0.029 | inactive: 0.012 | inactive: 0.011 |
| PTPRS isoform 3 (UniProt Q13332) | inactive: 0.106 | inactive: -0.098 | inactive: 0.021 | inactive: 0.01 | inactive: 0.059 | inactive: 0.033 | inactive: 0.086 | inactive: -0.028 | inactive: 0.013 | inactive: 0.023 |
| PTPA isoform 2 (UniProt Q15257) | inactive: 0.016 | inactive: -0.015 | inactive: 0.045 | inactive: -0.099 | inactive: 0.014 | inactive: 0.03 | inactive: -0.003 | inactive: -0.046 | inactive: -0.003 | inactive: 0.015 |
| PTBP1, A0A0U1RRM4 | inactive: -0.074 | – | – | – | – | – | – | – | – | – |
| PSMD10 (UniProt O75832) | inactive: -0.027 | inactive: -0.011 | inactive: -0.02 | inactive: -0.044 | inactive: 0.018 | inactive: 0.011 | inactive: -0.008 | inactive: -0.037 | inactive: 0.003 | inactive: 0.047 |
| PTPA (UniProt Q5T948) | inactive: -0.062 | – | – | – | – | – | – | – | – | – |
| PTK7 isoform 6 (UniProt Q13308) | inactive: -0.088 | inactive: 0.016 | inactive: -0.019 | inactive: -0.062 | inactive: -0.03 | inactive: 0.014 | inactive: -0.022 | inactive: -0.021 | inactive: 0.023 | inactive: 0.03 |
| PRPSAP2 (UniProt O60256) | inactive: -0.009 | inactive: -0.03 | inactive: 0.025 | inactive: -0.141 | inactive: -0.001 | inactive: 0.067 | inactive: -0.028 | inactive: -0.012 | inactive: 0.016 | inactive: 0.05 |
| PTPA (UniProt Q5T949) | inactive: 0.047 | – | – | – | – | – | – | – | – | – |
| PSPH (UniProt P78330) | inactive: -0.015 | inactive: -0.076 | inactive: 0.023 | inactive: -0.09 | inactive: 0.02 | inactive: 0.058 | inactive: -0.006 | inactive: 0.007 | inactive: -0.036 | inactive: 0.027 |
| PUS7 isoform 2 (UniProt Q96PZ0) | inactive: -0.033 | inactive: -0.02 | inactive: -0.001 | inactive: -0.013 | inactive: 0.034 | inactive: 0.033 | inactive: -0.027 | inactive: -0.005 | inactive: -0.008 | inactive: -0.002 |
| PTPN11, A0A0U1RRI0 | inactive: 0.019 | – | – | – | – | – | – | – | – | – |
| PSME3 (UniProt K7EMD0) | inactive: -0.14 | – | – | – | – | – | – | – | – | – |
| PTTG1IP (UniProt P53801) | inactive: -0.001 | inactive: 0.008 | inactive: 0.154 | inactive: 0.002 | inactive: 0.005 | inactive: 0.19 | inactive: -0.054 | inactive: -0.03 | inactive: 0.019 | inactive: -0.159 |
| PSMB6 (UniProt P28072) | inactive: 0.014 | inactive: -0.008 | inactive: 0.03 | inactive: -0.074 | inactive: 0.053 | inactive: 0.008 | inactive: -0.019 | inactive: 0.018 | inactive: 0.02 | inactive: 0.01 |
| PRRC2C isoform 7 (UniProt Q9Y520) | inactive: -0.012 | inactive: -0.024 | inactive: 0.023 | inactive: -0.004 | inactive: 0.005 | inactive: -0.005 | inactive: -0.014 | inactive: -0.024 | inactive: -0.024 | inactive: -0.011 |

Full records from above. Values in the order: log2 fold change [1] | log2 fold change [2] | log2 fold change [3] | log2 fold change [4] | log2 fold change [5] | log2 fold change [6] | log2 fold change [7] | log2 fold change [8] | log2 fold change [9] | log2 fold change [10]
PSPH (UniProt P78330) as listed: inactive: -0.015 | inactive: -0.076 | inactive: 0.023 | inactive: -0.09 | inactive: 0.02 | inactive: 0.058 | inactive: -0.006 | inactive: 0.007 | inactive: -0.036 | inactive: 0.027
PRSS21 (UniProt Q9Y6M0) as listed: inactive: -0.072 | inactive: -0.052 | inactive: -0.004 | inactive: 0.087 | inactive: -0.003 | inactive: 0.029 | inactive: -0.037 | inactive: 0.045 | inactive: 0.045 | inactive: 0.062

From the supplement of paper PMC10849652
